Test results taken from paper PMC8257253.
Results are given in words; binding and its absence hold for the method and conditions named. Binding seen in cells or lysates may run through a third protein. Some results given as binding are weak or reduced against the parent protein; the word gives no strength.

The chains behind the UniProt entries cited, without tags or fusion partners. Residues count along the entry.
UniProt P15508: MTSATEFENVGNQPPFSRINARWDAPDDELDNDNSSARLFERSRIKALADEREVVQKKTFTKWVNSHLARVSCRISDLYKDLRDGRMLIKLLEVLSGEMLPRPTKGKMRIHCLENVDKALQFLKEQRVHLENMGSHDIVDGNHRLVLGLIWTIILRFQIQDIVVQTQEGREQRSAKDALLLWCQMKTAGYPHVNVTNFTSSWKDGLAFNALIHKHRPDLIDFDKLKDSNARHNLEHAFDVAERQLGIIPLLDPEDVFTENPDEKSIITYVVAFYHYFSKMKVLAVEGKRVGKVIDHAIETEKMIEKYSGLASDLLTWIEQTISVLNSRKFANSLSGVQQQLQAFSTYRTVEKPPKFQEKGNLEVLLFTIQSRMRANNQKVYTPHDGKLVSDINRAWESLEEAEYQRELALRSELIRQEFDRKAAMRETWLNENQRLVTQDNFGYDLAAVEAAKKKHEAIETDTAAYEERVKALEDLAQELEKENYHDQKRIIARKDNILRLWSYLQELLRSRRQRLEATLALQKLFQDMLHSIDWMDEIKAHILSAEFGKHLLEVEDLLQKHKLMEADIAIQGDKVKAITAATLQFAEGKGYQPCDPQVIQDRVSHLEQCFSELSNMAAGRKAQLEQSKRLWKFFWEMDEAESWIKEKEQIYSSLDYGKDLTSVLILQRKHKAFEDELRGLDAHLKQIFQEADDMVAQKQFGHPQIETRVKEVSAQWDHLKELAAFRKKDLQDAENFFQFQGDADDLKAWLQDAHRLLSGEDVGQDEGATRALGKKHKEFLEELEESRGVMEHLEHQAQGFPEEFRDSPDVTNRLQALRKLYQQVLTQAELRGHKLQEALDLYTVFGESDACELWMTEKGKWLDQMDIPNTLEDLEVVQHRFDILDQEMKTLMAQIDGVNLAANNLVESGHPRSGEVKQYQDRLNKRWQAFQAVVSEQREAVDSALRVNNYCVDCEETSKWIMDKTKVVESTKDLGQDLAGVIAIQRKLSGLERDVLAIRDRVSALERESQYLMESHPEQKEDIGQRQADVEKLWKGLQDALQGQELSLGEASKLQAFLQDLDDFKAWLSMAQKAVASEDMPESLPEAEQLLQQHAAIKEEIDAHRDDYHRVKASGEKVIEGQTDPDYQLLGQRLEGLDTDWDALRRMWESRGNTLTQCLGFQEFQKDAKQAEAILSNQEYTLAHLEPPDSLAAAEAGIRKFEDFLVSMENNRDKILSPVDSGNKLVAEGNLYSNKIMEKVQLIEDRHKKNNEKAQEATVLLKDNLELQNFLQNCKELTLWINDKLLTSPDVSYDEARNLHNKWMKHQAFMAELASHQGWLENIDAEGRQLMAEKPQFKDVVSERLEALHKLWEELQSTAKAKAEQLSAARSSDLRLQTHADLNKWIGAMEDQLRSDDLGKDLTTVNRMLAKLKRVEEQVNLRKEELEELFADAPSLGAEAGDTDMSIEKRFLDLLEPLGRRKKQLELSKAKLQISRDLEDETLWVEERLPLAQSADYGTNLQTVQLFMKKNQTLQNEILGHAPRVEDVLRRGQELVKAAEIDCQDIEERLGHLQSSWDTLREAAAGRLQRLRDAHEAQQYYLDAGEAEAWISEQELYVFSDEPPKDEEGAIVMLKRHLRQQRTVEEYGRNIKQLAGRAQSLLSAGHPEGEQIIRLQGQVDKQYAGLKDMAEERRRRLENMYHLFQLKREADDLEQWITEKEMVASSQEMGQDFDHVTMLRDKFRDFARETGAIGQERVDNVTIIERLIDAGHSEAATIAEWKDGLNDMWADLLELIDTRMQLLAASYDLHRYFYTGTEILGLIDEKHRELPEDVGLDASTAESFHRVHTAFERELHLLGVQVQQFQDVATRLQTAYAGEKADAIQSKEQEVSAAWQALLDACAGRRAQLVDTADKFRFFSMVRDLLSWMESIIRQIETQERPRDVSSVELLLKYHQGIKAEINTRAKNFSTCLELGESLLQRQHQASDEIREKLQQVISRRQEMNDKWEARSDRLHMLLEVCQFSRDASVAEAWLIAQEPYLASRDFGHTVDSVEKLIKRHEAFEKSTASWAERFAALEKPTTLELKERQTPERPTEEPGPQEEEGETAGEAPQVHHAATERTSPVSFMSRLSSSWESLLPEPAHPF
UniProt Q810U4, residues 30-1256: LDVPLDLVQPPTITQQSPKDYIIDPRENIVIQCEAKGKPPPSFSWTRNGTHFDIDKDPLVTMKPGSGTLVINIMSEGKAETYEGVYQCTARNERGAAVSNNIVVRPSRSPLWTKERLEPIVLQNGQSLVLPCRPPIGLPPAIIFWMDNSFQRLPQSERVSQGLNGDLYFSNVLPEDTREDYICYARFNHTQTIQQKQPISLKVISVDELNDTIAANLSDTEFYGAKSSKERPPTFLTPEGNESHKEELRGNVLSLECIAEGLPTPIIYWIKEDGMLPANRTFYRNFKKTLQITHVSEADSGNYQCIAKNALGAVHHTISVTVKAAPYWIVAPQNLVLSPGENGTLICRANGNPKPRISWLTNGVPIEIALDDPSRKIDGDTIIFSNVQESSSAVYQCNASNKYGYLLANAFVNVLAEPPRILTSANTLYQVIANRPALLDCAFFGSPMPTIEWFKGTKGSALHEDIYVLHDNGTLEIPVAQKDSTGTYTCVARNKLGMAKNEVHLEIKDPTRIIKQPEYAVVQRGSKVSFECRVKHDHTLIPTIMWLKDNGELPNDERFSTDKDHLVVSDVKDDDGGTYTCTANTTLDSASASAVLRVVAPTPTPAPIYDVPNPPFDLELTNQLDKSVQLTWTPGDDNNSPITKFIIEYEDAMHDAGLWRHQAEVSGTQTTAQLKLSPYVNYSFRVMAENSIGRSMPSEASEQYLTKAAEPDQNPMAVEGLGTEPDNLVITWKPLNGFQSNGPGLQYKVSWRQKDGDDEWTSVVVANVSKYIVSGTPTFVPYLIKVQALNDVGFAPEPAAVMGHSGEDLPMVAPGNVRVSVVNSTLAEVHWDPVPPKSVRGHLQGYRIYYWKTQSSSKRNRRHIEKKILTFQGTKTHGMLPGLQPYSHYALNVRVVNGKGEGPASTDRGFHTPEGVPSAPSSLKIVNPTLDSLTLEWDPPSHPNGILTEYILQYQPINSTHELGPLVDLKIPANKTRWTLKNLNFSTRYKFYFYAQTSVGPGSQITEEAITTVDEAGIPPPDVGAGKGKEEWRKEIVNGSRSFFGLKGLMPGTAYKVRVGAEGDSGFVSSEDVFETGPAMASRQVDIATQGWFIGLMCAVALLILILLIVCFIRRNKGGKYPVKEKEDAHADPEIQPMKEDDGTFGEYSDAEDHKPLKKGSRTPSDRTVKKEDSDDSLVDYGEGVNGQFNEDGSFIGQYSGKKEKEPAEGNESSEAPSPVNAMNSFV
UniProt Q02357: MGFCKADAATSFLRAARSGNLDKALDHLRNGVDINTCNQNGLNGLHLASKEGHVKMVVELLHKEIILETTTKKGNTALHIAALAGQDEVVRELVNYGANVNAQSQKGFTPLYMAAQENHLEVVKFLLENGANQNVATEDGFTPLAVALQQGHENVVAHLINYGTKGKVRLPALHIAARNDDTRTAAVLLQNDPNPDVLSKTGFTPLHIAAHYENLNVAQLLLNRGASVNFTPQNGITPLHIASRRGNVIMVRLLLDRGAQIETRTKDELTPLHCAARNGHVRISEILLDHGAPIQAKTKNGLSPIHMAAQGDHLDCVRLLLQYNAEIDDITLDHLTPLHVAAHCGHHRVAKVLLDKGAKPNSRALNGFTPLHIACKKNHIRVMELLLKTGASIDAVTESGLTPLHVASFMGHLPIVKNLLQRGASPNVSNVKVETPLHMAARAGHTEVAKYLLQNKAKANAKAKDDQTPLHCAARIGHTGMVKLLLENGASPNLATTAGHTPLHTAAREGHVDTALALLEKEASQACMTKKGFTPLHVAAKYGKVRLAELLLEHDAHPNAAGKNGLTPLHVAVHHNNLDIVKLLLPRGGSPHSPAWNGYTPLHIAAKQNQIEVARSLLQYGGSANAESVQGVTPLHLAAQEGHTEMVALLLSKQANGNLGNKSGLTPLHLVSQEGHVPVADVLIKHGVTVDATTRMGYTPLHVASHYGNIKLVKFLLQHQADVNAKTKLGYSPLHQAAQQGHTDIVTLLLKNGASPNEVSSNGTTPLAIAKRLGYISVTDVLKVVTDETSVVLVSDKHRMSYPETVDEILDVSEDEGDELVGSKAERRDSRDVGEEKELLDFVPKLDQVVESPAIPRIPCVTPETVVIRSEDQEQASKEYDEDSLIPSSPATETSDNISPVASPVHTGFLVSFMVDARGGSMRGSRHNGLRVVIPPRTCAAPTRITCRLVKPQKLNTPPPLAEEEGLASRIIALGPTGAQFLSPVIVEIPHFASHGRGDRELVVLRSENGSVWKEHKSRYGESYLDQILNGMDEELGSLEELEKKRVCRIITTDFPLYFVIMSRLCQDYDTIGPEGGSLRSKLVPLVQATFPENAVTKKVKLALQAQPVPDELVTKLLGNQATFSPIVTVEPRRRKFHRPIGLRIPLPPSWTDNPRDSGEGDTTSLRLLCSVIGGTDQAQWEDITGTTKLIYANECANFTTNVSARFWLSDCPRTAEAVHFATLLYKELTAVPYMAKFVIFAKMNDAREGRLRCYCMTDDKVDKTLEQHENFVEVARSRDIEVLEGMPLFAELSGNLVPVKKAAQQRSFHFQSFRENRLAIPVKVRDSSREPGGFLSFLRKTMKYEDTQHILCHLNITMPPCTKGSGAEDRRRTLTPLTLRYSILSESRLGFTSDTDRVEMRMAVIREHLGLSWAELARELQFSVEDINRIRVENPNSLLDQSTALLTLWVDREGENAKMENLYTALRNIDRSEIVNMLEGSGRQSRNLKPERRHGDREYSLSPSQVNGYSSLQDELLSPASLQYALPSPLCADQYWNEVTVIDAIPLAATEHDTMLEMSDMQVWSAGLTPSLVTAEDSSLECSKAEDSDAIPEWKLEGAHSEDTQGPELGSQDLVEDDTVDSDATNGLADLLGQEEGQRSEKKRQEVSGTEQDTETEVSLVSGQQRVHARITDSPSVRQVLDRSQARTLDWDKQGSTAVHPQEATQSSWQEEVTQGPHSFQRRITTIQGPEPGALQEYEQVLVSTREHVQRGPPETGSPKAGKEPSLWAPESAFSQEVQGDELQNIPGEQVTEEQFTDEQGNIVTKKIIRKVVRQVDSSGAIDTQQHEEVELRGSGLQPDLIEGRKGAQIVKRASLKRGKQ

Experiments:
Test in all cases: co-IP; mouse brain homogenate solubilised with 1% Triton X-100; lysate 1 mg/ml in 1% Triton X-100, 20 mM Tris-HCl pH 8.0, 10 mM EDTA, 150 mM NaCl, 10 mM NaN3; antibodies overnight at 4 °C, Protein A or G agarose, seven washes, immunoblot; IgG as control
[1] = biological target: Neuropilin-1 (mouse (endogenous in mouse brain)) (UniProt P97333)
[2] = biological target: PlexinA4 (mouse (endogenous in mouse brain)) (UniProt Q80UG2)
[3] = biological target: β1 spectrin (mouse (endogenous in mouse brain)) (UniProt P15508)
[4] = biological target: NrCAM (mouse (endogenous in mouse brain)) (UniProt Q810U4)
[5] = biological target: Ankyrin-R (mouse (endogenous in mouse brain)) (UniProt Q02357)

binding [1] | binding [2] | binding [3] | binding [4] | binding [5] | Substance
binds | binds | binds | binds |  | Ankyrin-R (from UniProt Q02357 1-1862)
 |  |  |  | binds | β1 spectrin (from UniProt P15508 1-2128)
 |  |  |  | binds | NrCAM (from UniProt Q810U4 30-1256)
